Measurements taken from PubChem BioAssay AID256 (DTP/NCI, 2004).
The list does not hold the whole screen: it is rich in T/C values a quarter to a half above the control, in often repeated tests (any T/C) and in doses without a T/C. Other doses and runs of a compound stand elsewhere. T/C: endpoint of the treated group in % of that of the vehicle group. Some entries give survivors of the animals treated and no T/C: the source holds a T/C of zero for them, seemingly a mark for toxic or unscored doses. Some survivor counts are full or nearly so, which does not show that the dose was tolerated: the source hardly ever lists a survival T/C far under the control, and the zero likely stands for such cases as well. Survivors were counted at the toxicity check, usually on the fifth day, unless a day is given; later deaths do not show. Schedules are NCI's codes, read here as Q, the interval in days (D) or hours (H), X, the number of doses. Where survival is the endpoint, this PubChem deposit counts one and a half times the control or more as active, and values a quarter to a half above the control carry no call in these data; other NCI protocols may use other cut-offs. Additions like (4×) count equal records among those shown. Some T/C values are followed by the survivors on the day toxicity was checked, most often the fifth; where none is given, no animal had died by that day. Some entries were tested several times; the values are given in rising order.

Test system: CD2F1 mice, L1210 leukemia ip, survival T/C
Test: NCI In Vivo Anticancer Drug Screen. Data for tumor model L1210 Leukemia (intraperitoneal) in CD2F1 (CDF1) mice
Settings: T/C endpoint: mean survival time, higher T/C = longer survival
Method in brief: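 Mice carrying a transplanted tumor received test compound or vehicle alone. The value is the measurement in the treated group divided by that in the vehicle-treated control group.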

For COc1cccc2c1C(=O)c1c(O)c3c(c(O)c1C2=O)C[C@@](O)(C(=O)CO)C[C@@H]3OC1CC(N)C(O)C(C)O1 (stereo not given in full), the T/C (dose: 0.19 mg/kg/injection, schedule: Q01DX009 (ip), vehicle: saline) was 128 % of control, the T/C (dose: 0.25 mg/kg/injection, schedule: Q01DX009 (ip), vehicle: saline, evaluated on day 30) was 103, 111, 114, 117, 122, 124 (2×), 125, 127 % of control and the T/C (dose: 0.25 mg/kg/injection, schedule: Q01DX009 (ip), vehicle: saline, evaluated on day 35) was 126 % of control. The T/C (dose: 0.25 mg/kg/injection, schedule: Q01DX009 (ip), vehicle: saline, evaluated on day 45) was 109 % of control, the T/C (dose: 0.25 mg/kg/injection, schedule: Q01DX009 (ip), vehicle: saline, evaluated on day 60) was 112 and 129 % of control and the T/C (dose: 0.25 mg/kg/injection, schedule: Q01DX009 (ip), vehicle: water, evaluated on day 30) was 135 % of control. For the same compound, the T/C (dose: 0.25 mg/kg/injection, schedule: Q01DX009 (ip), vehicle: water, evaluated on day 35) was 108 % of control, the T/C (dose: 0.25 mg/kg/injection, schedule: Q01DX009 (ip), vehicle: water, evaluated on day 45) was 113, 115, 117 (2×), 121 (3×), 124 % of control and the T/C (dose: 0.31 mg/kg/injection, schedule: Q04DX003 (ip), vehicle: water) was 126 % of control. For the same compound, the T/C (dose: 0.39 mg/kg/injection, schedule: Q01DX009 (ip), vehicle: saline) was 135 % of control, the T/C (dose: 0.39 mg/kg/injection, schedule: Q01DX009 (ip), vehicle: water, evaluated on day 30) was 129 % of control and the T/C (dose: 0.39 mg/kg/injection, schedule: Q01DX009 (ip), vehicle: water, evaluated on day 45) was 134 % of control. For the same compound, the T/C (dose: 0.4 mg/kg/injection, schedule: Q01DX009 (ip), vehicle: dextrose) was 129 % of control, the T/C (dose: 0.43 mg/kg/injection, schedule: Q01DX009 (ip), vehicle: saline) was 134 % of control and the T/C (dose: 0.5 mg/kg/injection, schedule: Q01DX005 (ip), vehicle: water, evaluated on day 30) was 133 % of control. For the same compound, the T/C (dose: 0.5 mg/kg/injection, schedule: Q01DX005 (ip), vehicle: water, evaluated on day 45) was 129 % of control (2×), the T/C (dose: 0.5 mg/kg/injection, schedule: Q01DX009 (ip), vehicle: saline, evaluated on day 30) was 113, 121, 122, 125, 129, 131, 136 (2×), 137, 143 % of control and the T/C (dose: 0.5 mg/kg/injection, schedule: Q01DX009 (ip), vehicle: saline, evaluated on day 35) was 134 % of control. The T/C (dose: 0.5 mg/kg/injection, schedule: Q01DX009 (ip), vehicle: saline, evaluated on day 45) was 119 % of control, the T/C (dose: 0.5 mg/kg/injection, schedule: Q01DX009 (ip), vehicle: saline, evaluated on day 60) was 138 and 140 % of control and the T/C (dose: 0.5 mg/kg/injection, schedule: Q01DX009 (ip), vehicle: water, evaluated on day 5) was 140 % of control. The T/C (dose: 0.5 mg/kg/injection, schedule: Q01DX009 (ip), vehicle: water, evaluated on day 30) was 121 and 145 % of control [5 of 6 alive], the T/C (dose: 0.5 mg/kg/injection, schedule: Q01DX009 (ip), vehicle: water, evaluated on day 35) was 123 % of control and the T/C (dose: 0.5 mg/kg/injection, schedule: Q01DX009 (ip), vehicle: water, evaluated on day 45) was 117, 119, 123, 128, 129, 131, 136, 137 % of control [5 of 6 alive]. For the same compound, the T/C (dose: 0.65 mg/kg/injection, schedule: Q01DX009 (ip), vehicle: saline) was 136 % of control, the T/C (dose: 0.72 mg/kg/injection, schedule: Q01DX009 (ip), vehicle: saline) was 130 % of control and the T/C (dose: 0.75 mg/kg/injection, schedule: Q01DX009 (ip), vehicle: saline) was 147 % of control. The T/C (dose: 0.78 mg/kg/injection, schedule: Q01DX009 (ip), vehicle: water, evaluated on day 30) was 128 and 129 % of control, the T/C (dose: 0.78 mg/kg/injection, schedule: Q01DX009 (ip), vehicle: water, evaluated on day 45) was 130 and 136 % of control and the T/C (dose: 0.79 mg/kg/injection, schedule: Q01DX009 (ip), vehicle: dextrose) was 139 % of control. For the same compound, the T/C (dose: 1.0 mg/kg/injection, schedule: Q01DX005 (ip), vehicle: water, evaluated on day 30) was 139 % of control, the T/C (dose: 1.0 mg/kg/injection, schedule: Q01DX005 (ip), vehicle: water, evaluated on day 45) was 137 % of control and the T/C (dose: 1.0 mg/kg/injection, schedule: Q01DX009 (ip), vehicle: saline, evaluated on day 30) was 113, 123, 128, 131, 134, 135, 140, 141, 142, 200 % of control. For the same compound, the T/C (dose: 1.0 mg/kg/injection, schedule: Q01DX009 (ip), vehicle: saline, evaluated on day 35) was 176 % of control, the T/C (dose: 1.0 mg/kg/injection, schedule: Q01DX009 (ip), vehicle: saline, evaluated on day 45) was 138 % of control and the T/C (dose: 1.0 mg/kg/injection, schedule: Q01DX009 (ip), vehicle: saline, evaluated on day 60) was 141 and 143 % of control. For the same compound, the T/C (dose: 1.0 mg/kg/injection, schedule: Q01DX009 (ip), vehicle: water, evaluated on day 5) was 146 % of control, the T/C (dose: 1.0 mg/kg/injection, schedule: Q01DX009 (ip), vehicle: water, evaluated on day 30) was 134 and 157 % of control and the T/C (dose: 1.0 mg/kg/injection, schedule: Q01DX009 (ip), vehicle: water, evaluated on day 35) was 142 % of control. For the same compound, the T/C (dose: 1.0 mg/kg/injection, schedule: Q01DX009 (ip), vehicle: water, evaluated on day 45) was 122, 129, 134, 135, 142, 146, 152, 168 % of control, the T/C (dose: 1.0 mg/kg/injection, schedule: Q01DX009 (ip), vehicle: water, run until all animals had died) was 140 % of control and the T/C (dose: 1.08 mg/kg/injection, schedule: Q01DX009 (ip), vehicle: saline) was 139 % of control. The T/C (dose: 1.2 mg/kg/injection, schedule: Q01DX009 (ip), vehicle: saline) was 130 % of control, the T/C (dose: 1.25 mg/kg/injection, schedule: Q04DX003 (ip), vehicle: saline) was 128 % of control and the T/C (dose: 1.25 mg/kg/injection, schedule: Q04DX003 (ip), vehicle: water, evaluated on day 30) was 128 % of control. The T/C (dose: 1.25 mg/kg/injection, schedule: Q04DX003 (ip), vehicle: water, evaluated on day 60) was 136 % of control, the T/C (dose: 1.5 mg/kg/injection, schedule: Q01DX009 (ip), vehicle: saline) was 130 [5 of 6 alive] and 139 % of control and the T/C (dose: 1.56 mg/kg/injection, schedule: Q01DX009 (ip), vehicle: dextrose) was 141 % of control. For the same compound, the T/C (dose: 1.56 mg/kg/injection, schedule: Q01DX009 (ip), vehicle: water) was 143 % of control, the T/C (dose: 1.8 mg/kg/injection, schedule: Q01DX009 (ip), vehicle: saline) was 143 % of control and the T/C (dose: 1.94 mg/kg/injection, schedule: Q01DX001 (ip), vehicle: saline, evaluated on day 30) was 132 % of control. For the same compound, the T/C (dose: 1.94 mg/kg/injection, schedule: Q01DX001 (ip), vehicle: saline, evaluated on day 45) was 130 % of control, the T/C (dose: 2.0 mg/kg/injection, schedule: Q01DX005 (ip), vehicle: water) was 137 % of control and the T/C (dose: 2.0 mg/kg/injection, schedule: Q01DX009 (ip), vehicle: saline, evaluated on day 30) was 120, 125, 127, 129, 140, 141, 142, 146, 162, 222, 250 % of control. The T/C (dose: 2.0 mg/kg/injection, schedule: Q01DX009 (ip), vehicle: saline, evaluated on day 35) was 120 % of control, the T/C (dose: 2.0 mg/kg/injection, schedule: Q01DX009 (ip), vehicle: saline, evaluated on day 45) was 208 and 311 % of control and the T/C (dose: 2.0 mg/kg/injection, schedule: Q01DX009 (ip), vehicle: saline, evaluated on day 60) was 131 and 400 % of control. For the same compound, the T/C (dose: 2.0 mg/kg/injection, schedule: Q01DX009 (ip), vehicle: water, evaluated on day 5) was 160 % of control, the T/C (dose: 2.0 mg/kg/injection, schedule: Q01DX009 (ip), vehicle: water, evaluated on day 30) was 135 and 177 % of control and the T/C (dose: 2.0 mg/kg/injection, schedule: Q01DX009 (ip), vehicle: water, evaluated on day 35) was 159 % of control. The T/C (dose: 2.0 mg/kg/injection, schedule: Q01DX009 (ip), vehicle: water, evaluated on day 45) was 108, 125, 135, 138, 140, 141, 147, 362 % of control, the T/C (dose: 2.5 mg/kg/injection, schedule: Q01DX001 (ip), vehicle: saline, evaluated on day 5) was 130 % of control and the T/C (dose: 2.5 mg/kg/injection, schedule: Q01DX001 (ip), vehicle: saline, evaluated on day 45) was 130 % of control. For the same compound, the T/C (dose: 2.5 mg/kg/injection, schedule: Q01DX001 (ip), vehicle: saline, evaluated on day 60) was 129 % of control, the T/C (dose: 2.5 mg/kg/injection, schedule: Q01DX001 (ip), vehicle: water) was 126 and 130 % of control and the T/C (dose: 2.5 mg/kg/injection, schedule: Q04DX003 (ip), vehicle: saline) was 142 % of control. The T/C (dose: 2.5 mg/kg/injection, schedule: Q04DX003 (ip), vehicle: water) was 137 % of control, the T/C (dose: 3.0 mg/kg/injection, schedule: Q01DX009 (ip), vehicle: saline) was 126 and 130 % of control and the T/C (dose: 3.0 mg/kg/injection, schedule: Q04DX003 (ip), vehicle: saline) was 143 % of control. For the same compound, the T/C (dose: 3.13 mg/kg/injection, schedule: Q01DX009 (ip), vehicle: water) was 125 % of control, the T/C (dose: 3.24 mg/kg/injection, schedule: Q01DX001 (ip), vehicle: saline, evaluated on day 30) was 128 % of control and the T/C (dose: 3.24 mg/kg/injection, schedule: Q01DX001 (ip), vehicle: saline, evaluated on day 45) was 125 % of control. For the same compound, the T/C (dose: 3.33 mg/kg/injection, schedule: Q01DX009 (ip), vehicle: saline) was 141 % of control, the T/C (dose: 4.0 mg/kg/injection, schedule: Q01DX005 (ip), vehicle: water, evaluated on day 30) was 147 % of control and the T/C (dose: 4.0 mg/kg/injection, schedule: Q01DX005 (ip), vehicle: water, evaluated on day 45) was 127 % of control. For the same compound, the survivor count (dose: 4.0 mg/kg/injection, schedule: Q01DX005 (ip), vehicle: water) was 6 of 6, the T/C (dose: 4.0 mg/kg/injection, schedule: Q01DX009 (ip), vehicle: saline, evaluated on day 30) was 89, 93, 97, 104, 109, 111, 119, 122, 152 % of control and the T/C (dose: 4.0 mg/kg/injection, schedule: Q01DX009 (ip), vehicle: saline, evaluated on day 35) was 86 % of control. The T/C (dose: 4.0 mg/kg/injection, schedule: Q01DX009 (ip), vehicle: saline, evaluated on day 45) was 95 % of control, the T/C (dose: 4.0 mg/kg/injection, schedule: Q01DX009 (ip), vehicle: saline, evaluated on day 60) was 130 and 146 % of control and the survivor count (dose: 4.0 mg/kg/injection, schedule: Q01DX009 (ip), vehicle: saline) was 6 of 6. For the same compound, the T/C (dose: 4.0 mg/kg/injection, schedule: Q01DX009 (ip), vehicle: water, evaluated on day 5) was 119 % of control, the T/C (dose: 4.0 mg/kg/injection, schedule: Q01DX009 (ip), vehicle: water, evaluated on day 30) was 86 and 140 % of control and the T/C (dose: 4.0 mg/kg/injection, schedule: Q01DX009 (ip), vehicle: water, evaluated on day 35) was 92 % of control. The T/C (dose: 4.0 mg/kg/injection, schedule: Q01DX009 (ip), vehicle: water, evaluated on day 45) was 86, 88, 95, 119, 176 % of control.
